Results are given in words; binding and its absence hold for the method and conditions named. Some entries that bind do so weakly or less than the wild type.
Biological target: FtsZ protein (native, unlabelled) (Escherichia coli) (UniProt P0A9A6)
Assay: assay not described

Amino acid sequences for entries named in this document (tags omitted).
UniProt P0A9A6: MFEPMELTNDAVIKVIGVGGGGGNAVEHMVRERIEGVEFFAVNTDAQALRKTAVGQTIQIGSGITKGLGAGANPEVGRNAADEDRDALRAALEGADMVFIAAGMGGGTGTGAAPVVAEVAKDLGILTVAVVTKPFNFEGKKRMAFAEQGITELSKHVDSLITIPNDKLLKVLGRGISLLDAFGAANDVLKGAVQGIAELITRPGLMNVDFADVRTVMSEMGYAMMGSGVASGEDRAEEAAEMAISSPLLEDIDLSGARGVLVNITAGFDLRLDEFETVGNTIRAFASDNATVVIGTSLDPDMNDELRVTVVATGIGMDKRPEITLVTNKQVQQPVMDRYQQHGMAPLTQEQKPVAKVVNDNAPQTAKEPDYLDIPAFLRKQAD

Substance: HFTK-ZipA (from UniProt B1IX59 1-328)
- binding: binds

Substance: labelled derivative of ZipA in which a portion of the protein is fused to Green Fluorescent Protein (from UniProt B1IX59 1-328)
- binding: binds

— patent US20050059058A1
